Test results as given in patent US20180222952A1.
No constants are given. Whether binding was seen depends on the method and setting. For some of these results: In cells and extracts the contact can be indirect. Some binding calls cover weakened binding; strength is not graded here. For some of these results: Where a sequence is shown, tags or fusion partners need not be part of it.

Chains of the proteins cited; added tags and fusions are not shown. Lines headed by an entry give the natural chain unless they say otherwise; changes in a name come on top. A line that says so, or that is headed by a name, gives the form on record, which may keep a tag or linker. Residues count along the entry.
UniProt P0DMV8: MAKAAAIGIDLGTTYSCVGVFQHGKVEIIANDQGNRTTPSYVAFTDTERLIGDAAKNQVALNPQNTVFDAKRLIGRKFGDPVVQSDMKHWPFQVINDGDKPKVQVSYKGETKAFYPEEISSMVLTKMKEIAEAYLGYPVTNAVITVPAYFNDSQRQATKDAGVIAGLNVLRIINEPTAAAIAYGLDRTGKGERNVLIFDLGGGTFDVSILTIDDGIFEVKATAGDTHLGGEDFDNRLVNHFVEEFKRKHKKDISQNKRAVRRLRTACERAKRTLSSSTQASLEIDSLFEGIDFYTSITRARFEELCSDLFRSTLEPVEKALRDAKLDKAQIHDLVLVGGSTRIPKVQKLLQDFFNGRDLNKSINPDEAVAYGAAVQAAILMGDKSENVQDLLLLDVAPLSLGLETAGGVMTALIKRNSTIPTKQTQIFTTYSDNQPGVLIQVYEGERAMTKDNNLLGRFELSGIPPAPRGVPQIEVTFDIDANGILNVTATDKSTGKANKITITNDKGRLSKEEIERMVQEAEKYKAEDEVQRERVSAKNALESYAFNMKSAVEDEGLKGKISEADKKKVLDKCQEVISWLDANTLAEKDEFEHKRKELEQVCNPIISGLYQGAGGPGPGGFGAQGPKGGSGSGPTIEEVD
HSP70 co-purified with His-tagged PGRN from HEK293EBAN cells: residues 2-641 of P0DMV8
UniProt P17987: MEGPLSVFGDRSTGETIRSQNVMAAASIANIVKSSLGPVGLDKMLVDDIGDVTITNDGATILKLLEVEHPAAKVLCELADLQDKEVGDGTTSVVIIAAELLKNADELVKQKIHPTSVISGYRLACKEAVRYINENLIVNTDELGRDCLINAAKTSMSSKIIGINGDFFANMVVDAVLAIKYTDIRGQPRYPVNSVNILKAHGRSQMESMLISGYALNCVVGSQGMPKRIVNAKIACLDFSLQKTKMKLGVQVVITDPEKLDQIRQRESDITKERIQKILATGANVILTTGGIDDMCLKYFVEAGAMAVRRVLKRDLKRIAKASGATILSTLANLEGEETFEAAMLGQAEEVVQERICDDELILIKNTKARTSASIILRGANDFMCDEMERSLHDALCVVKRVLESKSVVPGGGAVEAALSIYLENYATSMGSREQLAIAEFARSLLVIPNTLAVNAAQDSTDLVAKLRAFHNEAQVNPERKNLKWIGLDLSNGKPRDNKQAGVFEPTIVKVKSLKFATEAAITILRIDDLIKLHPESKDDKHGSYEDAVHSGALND
UniProt P02769, residues 25-607: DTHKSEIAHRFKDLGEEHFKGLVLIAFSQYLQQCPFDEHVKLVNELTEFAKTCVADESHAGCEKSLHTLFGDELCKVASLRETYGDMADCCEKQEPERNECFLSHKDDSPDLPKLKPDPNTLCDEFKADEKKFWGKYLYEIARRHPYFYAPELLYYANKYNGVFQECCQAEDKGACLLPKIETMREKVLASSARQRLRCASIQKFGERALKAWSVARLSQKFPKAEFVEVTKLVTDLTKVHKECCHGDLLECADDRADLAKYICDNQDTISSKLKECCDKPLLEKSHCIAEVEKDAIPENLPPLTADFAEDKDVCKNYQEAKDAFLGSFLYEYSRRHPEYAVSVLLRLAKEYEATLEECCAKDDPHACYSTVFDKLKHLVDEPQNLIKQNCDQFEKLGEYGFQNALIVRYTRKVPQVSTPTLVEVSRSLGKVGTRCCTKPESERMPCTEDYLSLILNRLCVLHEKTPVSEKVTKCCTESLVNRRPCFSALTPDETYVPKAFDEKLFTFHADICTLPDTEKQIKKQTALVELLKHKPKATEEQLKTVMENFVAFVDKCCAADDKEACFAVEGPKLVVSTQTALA
UniProt P28799: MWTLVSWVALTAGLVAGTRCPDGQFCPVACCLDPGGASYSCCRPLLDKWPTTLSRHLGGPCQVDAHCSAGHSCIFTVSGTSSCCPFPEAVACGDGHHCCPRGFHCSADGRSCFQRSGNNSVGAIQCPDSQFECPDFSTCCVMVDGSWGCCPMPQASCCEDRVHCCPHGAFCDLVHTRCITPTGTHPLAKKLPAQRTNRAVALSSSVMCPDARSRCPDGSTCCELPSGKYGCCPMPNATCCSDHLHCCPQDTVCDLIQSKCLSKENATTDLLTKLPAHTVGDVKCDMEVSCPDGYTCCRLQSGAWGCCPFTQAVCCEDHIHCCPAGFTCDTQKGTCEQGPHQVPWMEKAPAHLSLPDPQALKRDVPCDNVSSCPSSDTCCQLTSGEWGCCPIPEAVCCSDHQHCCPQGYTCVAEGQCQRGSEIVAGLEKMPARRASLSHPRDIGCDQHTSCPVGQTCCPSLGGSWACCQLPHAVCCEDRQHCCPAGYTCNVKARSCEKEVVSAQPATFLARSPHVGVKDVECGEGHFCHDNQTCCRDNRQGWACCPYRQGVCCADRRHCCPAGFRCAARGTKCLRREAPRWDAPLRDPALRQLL

Legend:
[1] = molecular target: HSP70 expressed from a plasmid in transfected 293T cells (UniProt P0DMV8); experiment: co-IP from co-transfected 293T cells: IP anti-GFP, IB anti-HSP70
[2] = molecular target: T1, RFP-fused GBA (encoded by pDsRed-GBA) (UniProt P04062); experiment: co-IP from co-transfected 293T cells: IP anti-GFP, IB anti-RFP
T1 sequence (looked up): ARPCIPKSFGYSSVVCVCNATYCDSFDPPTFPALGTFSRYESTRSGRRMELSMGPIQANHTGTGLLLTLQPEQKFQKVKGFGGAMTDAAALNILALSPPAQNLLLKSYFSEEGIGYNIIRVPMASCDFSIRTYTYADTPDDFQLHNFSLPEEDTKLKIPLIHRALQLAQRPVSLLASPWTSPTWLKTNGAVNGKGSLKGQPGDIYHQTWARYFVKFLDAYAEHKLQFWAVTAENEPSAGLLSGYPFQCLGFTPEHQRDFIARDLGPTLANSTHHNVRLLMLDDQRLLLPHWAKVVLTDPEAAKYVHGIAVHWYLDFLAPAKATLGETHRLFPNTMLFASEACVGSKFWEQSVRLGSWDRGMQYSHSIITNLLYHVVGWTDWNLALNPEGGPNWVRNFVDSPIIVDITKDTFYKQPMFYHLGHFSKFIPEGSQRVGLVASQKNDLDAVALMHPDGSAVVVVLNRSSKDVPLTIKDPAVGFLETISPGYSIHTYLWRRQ

[3] = molecular target: T1, RFP-fused GBA (encoded by pDsRed-GBA); experiment: co-IP with GFP antibody, probed with RFP antibody, 293T cells
[4] = molecular target: HSP70 expressed from a plasmid in transfected 293T cells (UniProt P0DMV8); experiment: co-IP with GFP antibody, probed with HSP70 antibody, 293T cells
[5] = molecular target: T1, RFP-fused GBA (encoded by pDsRed-GBA); experiment: FRET in co-transfected 293 EBNA cells
[6] = molecular target: T1, RFP-fused GBA (encoded by pDsRed-GBA); experiment: co-IP with GFP antibody, probed with anti-RFP, 293 EBNA cells
[7] = molecular target: T1, RFP-fused GBA (encoded by pDsRed-GBA); experiment: co-IP from co-transfected 293 EBNA cells: IP anti-GFP, IB anti-RFP
[8] = molecular target: T1, RFP-fused GBA (encoded by pDsRed-GBA); experiment: FRET in co-transfected 293 EBNA cells, excitation 488 nm, emission 588 nm
[9] = molecular target: T1, RFP-fused GBA (encoded by pDsRed-GBA); experiment: co-IP and FRET with deletion mutants (summary of Example 2)
[10] = molecular target: HSP70 co-purified with His-tagged PGRN from HEK293EBAN cells (UniProt P0DMV8); experiment: co-purification from stably transfected HEK293EBAN cells, MS
[11] = molecular target: TCP1 co-purified with His-tagged PGRN from HEK293EBAN cells (UniProt P17987); experiment: as above
[12] = molecular target: Biotin-labeled HSP70 (solid phase binding assay) (UniProt P0DMV8); experiment: solid phase binding, Pcgin coated, biotin-labeled HSP70, ELISA-based detection
BSA (bovine) = BSA (bovine) (UniProt P02769); experiment: solid phase (ELISA-based) binding: Pcgin coated on the plate, BSA as negative control

Row | Substance | binding [1] | binding [2] | binding [5] | binding [6] | binding [7] | binding [8] | further results
1 | GFP fused Pcgin/ND7 deletion mutant lacking aa535-539 (RDNRQ) (from UniProt P28799 496-593) |  | binds |  |  |  |  | 
2 | GFP fused Pcgin/ND7 deletion mutant Δ496-522 (from UniProt P28799 523-593) | binds | binds |  |  |  |  | binding [3]: binds; binding [4]: binds
3 | GFP-tagged PGRN N-terminal deletion mutant ND1 (aa 45-593) (from UniProt P28799 45-593) |  |  | binds | binds | binds | binds | 
4 | GFP-tagged PGRN N-terminal deletion mutant ND2 (aa 113-593) (from UniProt P28799 113-593) |  |  | binds | binds | binds | binds | 
5 | GFP-tagged PGRN N-terminal deletion mutant ND5 (aa 336-593) (from UniProt P28799 336-593) |  |  | binds | binds | binds | binds | 
6 | GFP-tagged PGRN N-terminal deletion mutant ND7 (aa 496-593); GFP fused Pcgin (from UniProt P28799 496-593) | binds | binds | binds | binds | binds | binds | binding [9]: binds; binding [3]: binds; binding [4]: binds
7 | Recombinant His-tag PGRN protein (full length progranulin) (from UniProt P28799 18-593) (ligand) |  |  |  |  |  |  | binding [10]: binds; binding [11]: binds
8 | Recombinant Pcgin, His-tagged, expressed in bacteria (from UniProt P28799 496-593) |  |  |  |  |  |  | binding [12]: binds; binding (BSA (bovine)): no binding (tested: 5 µg/ml)

Second part, led by results:

Row | binding [1] | binding [2] | binding [5] | binding [6] | binding [7] | binding [8] | Substance | further results
9 | binds |  |  |  |  |  | GFP fused Pcgin/ND7 deletion mutant lacking aa523-534 (from UniProt P28799 496-593) | 
10 | binds | binds |  |  |  |  | GFP fused Pcgin/ND7 deletion mutant Δ574-593 (from UniProt P28799 496-573) | binding [3]: binds; binding [4]: binds
11 |  |  | binds | binds | binds | binds | GFP-tagged PGRN N-terminal deletion mutant ND4 (aa 261-593) (from UniProt P28799 261-593) | 
12 |  |  | binds | binds | binds | binds | GFP-tagged PGRN N-terminal deletion mutant ND6 (aa 416-593) (from UniProt P28799 416-593) | 
